Source: paper PMC9404779, “Oxidative Implications of Substituting a Conserved Cysteine Residue in Sugar Beet Phytoglobin BvPgb 1.2” (Antioxidants, 2022)
No constants are given. Whether binding was seen depends on the method and setting.

Target: T1, Equine myoglobin (Mb) (equine), P68082
T1 chain: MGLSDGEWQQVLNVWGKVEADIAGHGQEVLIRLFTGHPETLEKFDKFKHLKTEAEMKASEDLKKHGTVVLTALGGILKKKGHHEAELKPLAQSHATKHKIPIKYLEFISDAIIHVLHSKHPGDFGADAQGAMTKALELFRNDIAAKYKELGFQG
Experiment: SEC; analytical SEC, Superdex 75 10/300 GL, 50 mM NaP with 150 mM NaCl pH 7.0, 100 µL of 1 mg/mL protein; MW from retention volume on a calibration curve; dimer of monomers; both purified
Settings: remark: other sources report otherwise

binding: no binding (tested: 1 mg/mL)
B1: Equine myoglobin (Mb), P68082 1-154 (protein)
chain: T1 chain
